From the supplement of paper PMC10338343
± gives the standard deviation. The entries are a selection whose mix differs from that of the whole data set. Many entries were measured with a wide error. The list shows a part of the results.

How the values were obtained:
[1] = test system: MILI (PIWIL2) piRISC loaded with L1MC piRNA (26 nt); assay: pre-steady-state target cleavage rate (min^-1); higher = faster piRNA-guided slicing of the target; conditions: guide: L1MC piRNA 5'p-UAACUAAAUACUAUGCAAGCUGUAGG
How it was run: (§1)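 The pre-steady-state cleavage rate came from a burst-and-steady-state fit to pooled data from three Cleave-'n-Seq trials, in which uncleaved targets were sequenced and normalised to depth and to weakly complementary targets. Each reaction held 0.1 nM transcribed, DNA-blocked target RNA library and 1 nM active affinity-purified piRISC carrying one synthetic guide, with or without 500 nM GTSF1 partner protein, in HEPES–potassium acetate buffer at 33 °C for 0–8 or 0–960 min. k3 was capped at 0.0001 min^-1.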

[2] = test system: MIWI (PIWIL1) piRISC loaded with L1MC piRNA (30 nt); assay: as above; conditions: guide: L1MC piRNA 5'p-UAACUAAAUACUAUGCAAGCUGUAGGUCCU
How it was run: as §1

[3] = test system: EfPiwi piRISC loaded with L1MC piRNA (26 nt); assay: pre-steady-state target cleavage rate (min^-1); guide: L1MC piRNA 5'p-UAACUAAAUACUAUGCAAGCUGUAGG; MIWI and MILI are mouse PIWI proteins and EfPiwi is from a freshwater sponge; tags in brackets are library labels; higher = faster piRNA-guided slicing of the target
How it was run: as §1

[4] = auxiliary factor: 500 nM mouse GTSF1
[5] = auxiliary factor: none (no GTSF1)
[6] = auxiliary factor: 500 nM Ephydatia muelleri Gtsf1
[7] = auxiliary factor: none (no Gtsf1)

| Sequence | pre-steady-state target cleavage rate [1, 4] | pre-steady-state target cleavage rate [1, 5] | pre-steady-state target cleavage rate [2, 5] | pre-steady-state target cleavage rate [3, 6] | pre-steady-state target cleavage rate [2, 4] | pre-steady-state target cleavage rate [3, 7] |
| --- | --- | --- | --- | --- | --- | --- |
| UCCUGGAUGUCGAUGCUUAGUAUUUAGUAA | 0.0164 ± 0.0045 | 0.00102 ± 0.0051 | 0.000699 ± 0.0092 | 0.000305 ± 0.015 | – | – |
| UCCUGGAUGUCGUUGCAUGAGUAUUUAGUUA | 0.000818 ± 0.0096 | 0.00104 ± 0.0082 | 0.000593 ± 0.016 | 0.000321 ± 0.01 | – | – |
| UCCUGGAUGAGGAAGCAUAGUAUUUACAAA | 0.00235 ± 0.0055 | 0.000461 ± 0.011 | 0.000765 ± 0.0083 | 0.000279 ± 0.016 | – | – |
| UCCUGGAUGAGCUUCGAUAGUAUUUAGUUA | 0.108 ± 0.013 | 0.0016 ± 0.0048 | 0.00118 ± 0.0044 | 0.000682 ± 0.0048 | – | – |
| UCCUGGAACAGCUUGCAUAGUAAAUAGAAA | 0.0493 ± 0.016 | 0.000955 ± 0.0057 | 0.00124 ± 0.0045 | 0.00337 ± 0.0028 | – | – |
| UCCUGGUAGAGCUUGCAUAGUAUUUACAAA | 0.015 ± 0.0066 | 0.000808 ± 0.0073 | 0.00249 ± 0.0032 | 0.00173 ± 0.0025 | – | – |
| UCCUGGAUGUCGAAGCAUAGUAUUUUAGUUA | 0.0433 ± 0.01 | 0.00324 ± 0.0028 | – | 0.000287 ± 0.012 | 0.00192 ± 0.0055 | – |
| UCCUGGUACACCUUGCAUAGUAUUUUCAAA | 0.0291 ± 0.016 | 0.00122 ± 0.0069 | 0.00201 ± 0.0053 | 0.000912 ± 0.0074 | – | – |
| UCCUGGAUGUGCUUGCAUUAGUAUUUAGUUA | 0.00201 ± 0.0074 | 0.000858 ± 0.0086 | – | 0.00132 ± 0.0054 | 0.00138 ± 0.011 | – |
| UCCUGGAUGUCCUUGCAUUCUAUUUAGUUA | 0.00856 ± 0.0043 | 0.00132 ± 0.0052 | 0.000771 ± 0.0063 | 0.000158 ± 0.021 | – | – |
| UCCUGGAUGUCGAUGCAUGUAUUUAGUUA | 0.00101 ± 0.0084 | 0.000583 ± 0.0076 | 0.000966 ± 0.0055 | 0.00109 ± 0.0065 | – | – |
| UCCUGGAUGUCGUUGCAUAUGUAUUUAGUUA | 0.000768 ± 0.0088 | 0.000311 ± 0.013 | 0.000692 ± 0.014 | – | – | 0.000209 ± 0.035 |
| UCCUGGAUGUCCUAGCAUAGUAUUUUGUUA | 0.0105 ± 0.0061 | 0.00141 ± 0.005 | 0.00132 ± 0.006 | 0.000398 ± 0.0076 | – | – |
| UCCUGGAACAGCUUGCACUAGUAUUUAGUUA | 0.0388 ± 0.0091 | 0.00243 ± 0.0027 | 0.0021 ± 0.0031 | 0.00312 ± 0.0026 | – | – |
| UCCUGGAUGUCGUUGCAAUGUAUUUAGUUA | 0.00171 ± 0.0063 | 0.00255 ± 0.0031 | 0.000824 ± 0.0093 | 0.000309 ± 0.011 | – | – |
| UCCUGGAUCAGCUUGCUAAGUAUUUACAAA | 0.0261 ± 0.0085 | 0.000909 ± 0.006 | 0.000374 ± 0.0052 | 0.000301 ± 0.013 | – | – |
| UCCUGGAUGUCGAUGCAUAGGUAUUUAGUUA | 0.0035 ± 0.0037 | 0.00161 ± 0.0059 | 0.000991 ± 0.01 | 0.00161 ± 0.008 | – | – |
| UCCUCCUACAGCUUGCAUAGUAAAAAGUAA | 0.0657 ± 0.019 | 0.000859 ± 0.0069 | 0.000361 ± 0.0086 | 0.00344 ± 0.0029 | – | – |
| UCCUGGUACACGUUGCAUAGUAUUUUCAAA | 0.02 ± 0.011 | 0.00224 ± 0.0051 | 0.000585 ± 0.015 | 0.000266 ± 0.03 | – | – |
| UCCUGGAUGUCCUUGCAUUGAAUUUAGUUA | 0.00493 ± 0.0046 | 0.00269 ± 0.0034 | 0.000952 ± 0.0055 | 0.000734 ± 0.0072 | – | – |
| UCCUGGAUGUCCAUGCAUAGAAUUUAGUUA | 0.0111 ± 0.0048 | 0.00219 ± 0.0025 | 0.000945 ± 0.0065 | 0.000293 ± 0.014 | – | – |
| UCCUGGAUGUCCUUGCAUUAGUAUUUAGUUA | 0.00301 ± 0.0054 | 0.00137 ± 0.005 | 0.00104 ± 0.0071 | 0.00162 ± 0.005 | – | – |
| UCCUGGAUGUCGAAGCAUAGUAUUAUCUUA | 0.00061 ± 0.013 | < 0.0001 | 0.000121 ± 0.019 | 0.000251 ± 0.013 | – | – |

| Sequence | pre-steady-state target cleavage rate [1, 4] | pre-steady-state target cleavage rate [1, 5] | pre-steady-state target cleavage rate [2, 5] | pre-steady-state target cleavage rate [3, 6] | pre-steady-state target cleavage rate [2, 4] | pre-steady-state target cleavage rate [3, 7] |
| --- | --- | --- | --- | --- | --- | --- |
| UCCUGGAUGUCGAACGUUUGUAUUUUGUUA | 0.000103 ± 0.056 | 0.000224 ± 0.021 | – | – | 0.000237 ± 0.028 | 0.000198 ± 0.024 |
| UCCUGGAACACGUUGCAUAGUAUUUUCAAA | 0.0973 ± 0.026 | 0.00188 ± 0.0033 | 0.00129 ± 0.006 | 0.00056 ± 0.0067 | – | – |
| UCCUGGAACAGCUUGCAUAGAUAUUAGUUA | 0.0112 ± 0.0053 | 0.00125 ± 0.0049 | 0.00137 ± 0.0049 | 0.000479 ± 0.007 | – | – |
| UCCUGGAUGUGGUUCCAUAGUAUUUAGUUA | 0.00523 ± 0.0059 | 0.000696 ± 0.012 | – | 0.000469 ± 0.0092 | 0.00165 ± 0.01 | – |
| UCCUGGAACAGCAACCAUAGUAUUUUCAAA | 0.00126 ± 0.0053 | 0.000444 ± 0.013 | 0.000802 ± 0.0057 | 0.000168 ± 0.018 | – | – |
| UCCUGGAUGUCGAUGGAUAGUAUUUUGUUA | 0.00767 ± 0.0043 | 0.000396 ± 0.017 | 0.00033 ± 0.023 | 0.000926 ± 0.0076 | – | – |
| UCCUGGAUGUCGAAGCAUAGUAUUUUGUUA | 0.0221 ± 0.0061 | 0.00241 ± 0.0023 | 0.00087 ± 0.0045 | 0.0012 ± 0.0049 | – | – |
| UCCUGGAUGUCGUUGCAUAGUAUCUAGUUA | 0.11 ± 0.019 | 0.00293 ± 0.0035 | 0.0022 ± 0.0048 | 0.00252 ± 0.0039 | – | – |
| UCCUGGAUGUCGAAGCAUAGUAAAUAGUUA | 0.00319 ± 0.0038 | 0.00132 ± 0.0047 | 0.000857 ± 0.0078 | 0.000218 ± 0.022 | – | – |
| UCCUGGAUGUCGAACCAUCGUAUUUAGUUA | 0.000454 ± 0.012 | 0.000426 ± 0.0092 | – | < 0.0001 | 0.000253 ± 0.019 | – |
| UCCUGGAUGUCGAAGCAUAGUUAUUAGUUA | 0.00245 ± 0.0048 | 0.00217 ± 0.0024 | 0.0006 ± 0.0088 | 0.000805 ± 0.0086 | – | – |
| UCCUGGAUGUCGACGCAUAGUAUUUAGUUA | 0.0214 ± 0.0042 | 0.00381 ± 0.0021 | 0.000961 ± 0.0065 | – | – | 0.000482 ± 0.018 |
| UCCUGGAUCAGCUUCCAUAGUAUUUAGUAA | 0.0353 ± 0.0094 | 0.00139 ± 0.0049 | 0.00172 ± 0.0034 | 0.00347 ± 0.0017 | – | – |
| UCCUGGAUCAGCUUGCAUAGUAUUAACAAA | 0.0885 ± 0.022 | 0.000824 ± 0.0068 | 0.00273 ± 0.0046 | 0.00119 ± 0.0037 | – | – |
| UCCUCCUACAGCUUGACAUAGUAUUUAGUUA | 0.267 ± 0.018 | 0.00554 ± 0.0024 | 0.00235 ± 0.0029 | 0.016 ± 0.0056 | – | – |
| UCCUGGAUGUCCUUGCAUACUUUUUAGUUA | 0.00626 ± 0.004 | 0.0024 ± 0.0022 | 0.00172 ± 0.005 | 0.00098 ± 0.0067 | – | – |
| UCCUGCUACUCGUUGCAUAGUAUUUUCAAA | 0.0428 ± 0.014 | 0.00112 ± 0.0045 | 0.000611 ± 0.0075 | 0.00174 ± 0.0045 | – | – |
| UCCUGCUACAGCUUGCAUAGUAUUAACAAA | 0.0401 ± 0.011 | 0.00146 ± 0.0049 | 0.00187 ± 0.0053 | 0.00321 ± 0.0023 | – | – |
| UCCUGCUACUCCUUGCAUAGUAUUUACAAA | 0.0669 ± 0.016 | 0.00117 ± 0.004 | 0.00174 ± 0.0038 | – | – | 0.000345 ± 0.017 |
| UCCUGGAUGAGCUUGCAAUGUAUUUAGUAA | 0.0194 ± 0.0045 | 0.00717 ± 0.0024 | 0.00278 ± 0.0033 | 0.000323 ± 0.013 | – | – |
| UCCUGGAUGUCGUUGCAUUGUAAUUAGUUA | 0.000237 ± 0.05 | 0.000339 ± 0.017 | 0.000206 ± 0.029 | 0.000125 ± 0.046 | – | – |
| UCCUGGAUGUCGAAGCAUAGAAUUUAGUUA | 0.00179 ± 0.0038 | 0.000812 ± 0.005 | 0.000474 ± 0.0097 | 0.000116 ± 0.031 | – | – |

Reprinted at random: two records from the list.

| Sequence | pre-steady-state target cleavage rate [1, 4] | pre-steady-state target cleavage rate [1, 5] | pre-steady-state target cleavage rate [2, 5] | pre-steady-state target cleavage rate [3, 6] | pre-steady-state target cleavage rate [2, 4] | pre-steady-state target cleavage rate [3, 7] |
| --- | --- | --- | --- | --- | --- | --- |
| UCCUGGAUGUCCUUGCAUACUUUUUAGUUA | 0.00626 ± 0.004 | 0.0024 ± 0.0022 | 0.00172 ± 0.005 | 0.00098 ± 0.0067 | – | – |
| UCCUGGAUGUCGUUGCAUAGUAUCUAGUUA | 0.11 ± 0.019 | 0.00293 ± 0.0035 | 0.0022 ± 0.0048 | 0.00252 ± 0.0039 | – | – |
